Measurements as given in patent US7144988B2, “Method of structure-based drug design to create or improve modulators of IL-1 activity which bind to the interleukin-1 type 1 receptor” (Array Biopharma, Inc., priority 2002, dated 2006).
No constants are given. Whether binding was seen depends on the method and setting. Some entries that bind do so weakly or less than the wild type.

Amino acid sequences for entries named in this document (tags omitted). A change or cut given only in a name is not applied to a line headed by its entry. Residues count along the entry.
UniProt P18510, residues 26-177: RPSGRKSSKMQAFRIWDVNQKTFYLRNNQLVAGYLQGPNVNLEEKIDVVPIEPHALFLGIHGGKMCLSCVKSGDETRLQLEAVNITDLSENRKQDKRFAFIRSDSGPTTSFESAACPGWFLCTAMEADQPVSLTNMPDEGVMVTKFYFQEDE
UniProt P14778: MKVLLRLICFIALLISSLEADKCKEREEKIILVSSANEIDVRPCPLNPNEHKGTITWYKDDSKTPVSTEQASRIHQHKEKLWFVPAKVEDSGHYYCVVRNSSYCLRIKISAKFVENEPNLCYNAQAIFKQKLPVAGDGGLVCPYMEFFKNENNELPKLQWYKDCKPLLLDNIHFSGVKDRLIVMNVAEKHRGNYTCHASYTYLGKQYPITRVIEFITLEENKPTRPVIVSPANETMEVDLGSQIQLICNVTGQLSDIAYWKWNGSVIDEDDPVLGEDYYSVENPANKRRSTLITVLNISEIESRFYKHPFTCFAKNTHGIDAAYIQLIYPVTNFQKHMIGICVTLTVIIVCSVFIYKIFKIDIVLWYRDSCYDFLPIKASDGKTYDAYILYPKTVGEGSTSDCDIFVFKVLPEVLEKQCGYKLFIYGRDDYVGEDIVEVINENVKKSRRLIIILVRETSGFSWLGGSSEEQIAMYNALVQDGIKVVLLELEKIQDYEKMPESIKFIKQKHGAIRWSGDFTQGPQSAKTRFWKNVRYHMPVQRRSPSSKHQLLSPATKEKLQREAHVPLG

Biological target: interleukin-1 receptor antagonist (IL-1ra) (UniProt P18510)
Experiment: affinity chromatography: culture supernatant incubated with IL-1ra covalently bound to Affigel-15 resin, washed with PBS plus 0.5 M NaCl, eluted at pH 2.8

“modified IL-1 type 1 receptor (IL1R2D) (from UniProt P14778 18-222)” was tested, and the binding was “binds”.
